{
  "source": "PubChem BioAssay AID504467",
  "about": "(National Center for Advancing Translational Sciences (NCATS), 2011)",
  "note": "The whole screen tested about 330,000 compounds, of which about 7,700 (2.3%) were called active. The inconclusive results got no clear call from the source; some entries with a clear call stand among them for comparison. Calls follow the shape of the dose curve; as a rule, active = well fitted inhibition curve with a large enough effect; inconclusive = small, poorly fitted or top-dose-only effect, or effect the other way; inactive = flat fitted curve, though single readings scatter. Potencies of inconclusive entries are doubtful fits and often do not repeat. % is scaled to controls: 0 for no effect and ±100 for the full control effect; potency is read from the fitted curve at half-maximal effect.",
  "data": [
    {"test": "qHTS screen for small molecules that inhibit ELG1-dependent DNA repair in human embryonic kidney (HEK293T) cells expressing luciferase-tagged ELG1; also: nearly all actives have a fitted effect of over 55% in size", "details": "HEK293T ELG1-luciferase reporter, luminescence, 16 h, DNA damage induced by 5-fluorouridine; activity change, negative = inhibition: at 46.1 µM (top of the series)", "outline": "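Reporter activity after DNA damage by 5-fluorouridine is monitored. Compound-treated cells incubate 16 hr at 37 °C, then ONE-Glo is added for 30 min before luminescence reading.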", "values": [
      {"smiles": "CN1CCN(CC(=O)Nc2nc(-c3ccccc3)cs2)CC1", "Potency": "inconclusive: 20.6 µM [activator, single point]"},
      {"smiles": "CCOC(=O)C1(CCOc2ccccc2)CCN(CC=C(C)C)CC1", "Potency": "inconclusive: 16.4 µM [inhibitor, partial curve, poor fit]"},
      {"smiles": "CCOC(=O)c1sc(C)c(C(=O)NCCCN2CCOCC2)c1N", "activity change, negative = inhibition": "inactive: -2.04%"},
      {"smiles": "COC(=O)CCn1nnc(-c2cccs2)n1", "activity change, negative = inhibition": "inactive: 18.1%"},
      {"smiles": "COC(=O)Nc1ccc(S(=O)(=O)Nc2ccc(O)cc2)cc1", "Potency": "inconclusive: 18.4 µM [inhibitor, partial curve]"},
      {"smiles": "Cc1nccc2[nH]c(=O)c(C(=O)NC(C)CCc3ccccc3)cc12", "note": "(stereo not drawn)", "activity change, negative = inhibition": "inactive: -13.5%"},
      {"smiles": "CCOC(=O)C1CCCN(S(=O)(=O)c2ccc(Br)s2)C1", "note": "(stereo not drawn)", "activity change, negative = inhibition": "inactive: -7.33%"},
      {"smiles": "CCC1(CC)Cc2ccccc2C(=O)N1", "activity change, negative = inhibition": "inactive: -3.1%"},
      {"smiles": "CC(=O)N1CCN(Cc2nc3cc(NC(=O)c4ccc(Cl)cc4)ccc3n2C)CC1", "Potency": "active: 20.6 µM"},
      {"smiles": "CCCCCCOC(=O)c1ccc(NC(=O)c2cc(OC)c(OC)c(OC)c2Br)cc1", "Potency": "inconclusive: 18.4 µM [inhibitor, single point]"},
      {"smiles": "CC(OC(=O)Cn1cnc2c1c(=O)n(C)c(=O)n2C)C(=O)NC1(C#N)CCCCC1", "note": "(stereo not drawn)", "activity change, negative = inhibition": "inactive: 14.1%"},
      {"smiles": "CC(C)CC(c1nnnn1Cc1cccs1)N1CCN(c2nc3ccccc3s2)CC1", "note": "(stereo not drawn)", "Potency": "inconclusive: 29.1 µM [inhibitor, single point]"},
      {"smiles": "Cc1ccccc1-c1noc(-c2ccccc2C(=O)NCc2ccco2)n1", "Potency": "inconclusive: 6.51 µM [inhibitor, single point]"},
      {"smiles": "CCOC(=O)C1=C[C@]2(CC)CCCN3CCc4c(n1c1ccccc41)[C@@H]32", "Potency": "inconclusive: 1.46 µM [activator, partial curve, poor fit]"},
      {"smiles": "CN(C)c1cccc2c(C=C(C#N)C#N)ccc(N(C)C)c12", "activity change, negative = inhibition": "inactive: -7.99%"},
      {"smiles": "Cc1noc(C)c1COC(=O)c1ccccc1NC(=O)c1ccco1", "Potency": "inconclusive: 29.1 µM [inhibitor, single point]"},
      {"smiles": "Cc1ccc(CN(C)C(=O)c2cccc(S(=O)(=O)N3CCc4ccccc4C3)c2)o1", "Potency": "inconclusive: 5.8 µM [inhibitor, partial curve]"},
      {"smiles": "O=C(NNC(=O)c1cc2c(s1)CCCC2)c1ccccc1", "Potency": "inconclusive: 14.6 µM [activator, partial curve]"},
      {"smiles": "O=C(CNc1ccccc1)N/N=C/c1ccc2c(c1)OCO2", "activity change, negative = inhibition": "inactive: 2.54%"},
      {"smiles": "CCn1c(C)cc(C(=O)CSc2nnnn2C2CCCC2)c1C", "Potency": "inconclusive: 4.11 µM [activator, full curve]"},
      {"smiles": "Cc1ccc(NC(=O)C2=C(O)c3ccccc3N(C)S2(=O)=O)cc1", "Potency": "inconclusive: 7.31 µM [activator, partial curve, poor fit]"},
      {"smiles": "CCOC(=O)N1CCN(C(=O)C2CCC(=O)N(CCCc3ccccc3)C2)CC1", "note": "(stereo not drawn)", "activity change, negative = inhibition": "inactive: -12.1%"},
      {"smiles": "COc1cc(/C=N/NC(=O)CNC(=O)/C=C/c2ccco2)cc(OC)c1OC", "Potency": "inconclusive: 9.2 µM [activator, partial curve, poor fit]"},
      {"smiles": "C[C@]12CC[C@@H]3c4ccc(O)cc4CC[C@H]3[C@@H]1CCC2=O", "Potency": "inconclusive: 29.1 µM [activator, partial curve, poor fit]"},
      {"smiles": "CSc1nc(C(=O)N2CCc3c([nH]c4ccccc34)C2c2ccccn2)cs1", "note": "(stereo not drawn)", "Potency": "inconclusive: 16.4 µM [inhibitor, single point]"},
      {"smiles": "COC(=O)c1ccc(Nc2nnc(-c3ccc(C)c(S(=O)(=O)NCC4CCCO4)c3)c3ccccc23)cc1", "note": "(stereo not drawn)", "Potency": "inconclusive: 20.6 µM [inhibitor, single point]"},
      {"smiles": "Cc1ccc(S(=O)(=O)Cc2ccc(C(=O)N3CCN(c4ccc(F)cc4)CC3)o2)cc1", "Potency": "active: 23.1 µM"},
      {"smiles": "CCOC(=O)c1cc([N+](=O)[O-])sc1NC(=O)c1ccc(S(=O)(=O)N2CC3(C)CC2CC(C)(C)C3)cc1", "note": "(stereo not drawn)", "Potency": "inconclusive: 0.651 µM [inhibitor, partial curve, poor fit]"},
      {"smiles": "Cc1c(CC(=O)O)c(=O)oc2cc(OCc3ccc(F)cc3F)ccc12", "activity change, negative = inhibition": "inactive: 0.0999%"},
      {"smiles": "Cc1ccc(/C(N)=N/OC(=O)CCC2CCCCC2)cc1", "Potency": "inconclusive: 5.17 µM [activator, single point]"},
      {"smiles": "O=C(NNC(=S)NC(=O)c1ccc(F)cc1)c1ccncc1", "activity change, negative = inhibition": "inactive: 8.35%"},
      {"smiles": "COC(=O)c1ccc(COc2ccccc2/C=C(\\C#N)C(=O)Nc2ccc(C)cc2)cc1", "Potency": "inconclusive: 8.2 µM [activator, partial curve]"},
      {"smiles": "N#Cc1c(N2CCOCC2)nsc1-c1ccc(C(F)(F)F)cc1", "Potency": "inconclusive: 29.1 µM [activator, single point]"},
      {"smiles": "Cc1cc(C)cc(NC(=O)C(=O)NCCCN2CCCC2=O)c1", "Potency": "inconclusive: 9.2 µM [activator, partial curve]"},
      {"smiles": "Cc1ccc(OCCOC(=O)c2cccc(S(=O)(=O)N3CC(C)OC(C)C3)c2)cc1", "note": "(stereo not drawn)", "Potency": "inconclusive: 11.6 µM [inhibitor, partial curve, poor fit]"},
      {"smiles": "O=C(Nc1nnc(-c2ccccc2)o1)c1cc(Cl)sc1Cl", "activity change, negative = inhibition": "inactive: 13.6%"},
      {"smiles": "Cc1cc2nc(N=C(N)N)nc(C)c2cc1C", "Potency": "inconclusive: 18.3 µM [inhibitor, single point]"},
      {"smiles": "CN(C)C(CNC(=O)c1coc2ccccc2c1=O)c1ccccc1", "note": "(stereo not drawn)", "Potency": "inconclusive: 10.3 µM [activator, partial curve, poor fit]"},
      {"smiles": "Cc1nc(SCc2ccc(OCCC(C)C)cc2)n[nH]1", "Potency": "inconclusive: 13 µM [activator, partial curve]"},
      {"smiles": "CN1CCN(C(c2ccc(C(F)(F)F)cc2)c2cc(Cl)c3cccnc3c2O)CC1", "note": "(stereo not drawn)", "Potency": "inconclusive: 16.4 µM [activator, partial curve, poor fit]"},
      {"smiles": "C=CCN1C(=O)c2ccc(C(=O)N(CC(C)C)c3c(N)n(CCCC)c(=O)[nH]c3=O)cc2C1=O", "Potency": "inconclusive: 29.1 µM [activator, single point]"},
      {"smiles": "COc1ccc(C(CNC(=O)c2c(C)nn(Cc3ccccc3)c2Cl)N2CCOCC2)cc1", "note": "(stereo not drawn)", "Potency": "inconclusive: 13 µM [inhibitor, partial curve, poor fit]"},
      {"smiles": "COC(=O)c1c(-c2ccc(S(C)(=O)=O)cc2)sc2cc(OC)ccc12", "Potency": "inconclusive: 6.51 µM [activator, partial curve]"},
      {"smiles": "CCOC(=O)c1ccc2nc(C)c(C)nc2c1", "Potency": "inconclusive: 18.3 µM [activator, partial curve]"},
      {"smiles": "O=C(c1cnccn1)N1CCc2ccccc21", "Potency": "inconclusive: 31.6 µM [activator, single point]"},
      {"smiles": "COc1ccc([N+](=O)[O-])cc1NC(=O)COC(=O)Cc1cc(OC)c(OC)c(OC)c1", "Potency": "inconclusive: 29.1 µM [inhibitor, partial curve, poor fit]"},
      {"smiles": "CC(=O)Cn1cnc2c(cnn2-c2ccccc2)c1=O", "Potency": "inconclusive: 14.6 µM [activator, partial curve]"},
      {"smiles": "COCCn1c(N)c(C(=O)c2cccc(S(=O)(=O)N3CCCCCC3)c2)c(=O)[nH]c1=O", "activity change, negative = inhibition": "inactive: -16.3%"},
      {"smiles": "COc1ccc(-n2c(SCC(=O)N/N=C(\\C)c3cccnc3)nc3ccccc3c2=O)cc1", "Potency": "inconclusive: 29.1 µM [activator, single point]"},
      {"smiles": "S=C1NCN(Cc2ccccc2)CN1", "activity change, negative = inhibition": "inactive: 28%"},
      {"smiles": "Cc1cccc(N2CCN(C(=O)c3ccc4c(c3)CCN4S(C)(=O)=O)CC2)c1C", "Potency": "inconclusive: 25.9 µM [inhibitor, single point]"},
      {"smiles": "Cc1cc(C)n(-c2nc(NCCCO)c3c4c(sc3n2)CCCC4)n1", "Potency": "inconclusive: 32.6 µM [inhibitor, single point]"},
      {"smiles": "CCSc1nc2sc3c(c2c(=O)n1CC)CC(C)(C)OC3", "activity change, negative = inhibition": "inactive: -11%"},
      {"smiles": "Cc1oc(-c2cccc(Cl)c2)nc1CN1CCC(C(=O)NCCCN2CC(C)CC(C)C2)CC1", "note": "(stereo not drawn)", "Potency": "inconclusive: 29.1 µM [inhibitor, single point]"},
      {"smiles": "Cc1ccc(OCCn2cnc3sc(C(N)=O)c(C)c3c2=O)cc1", "Potency": "inconclusive: 29.1 µM [inhibitor, single point]"},
      {"smiles": "COc1ccc(C(=O)NCCc2c[nH]c3ccc(OC)cc23)cc1", "activity change, negative = inhibition": "inactive: -6.3%"},
      {"smiles": "Cc1cc(=O)c2c(C)ccc(C)c2[nH]1", "activity change, negative = inhibition": "inactive: -4.12%"},
      {"smiles": "CCOC(=O)c1cccc(NC(=O)C2CCC(CNc3c(N4CCOCC4)c(=O)c3=O)CC2)c1", "note": "(stereo not drawn)", "Potency": "inconclusive: 3.26 µM [inhibitor, partial curve, poor fit]"},
      {"smiles": "O=C(NCc1ccc(F)cc1)Nc1cccc(Cl)c1", "Potency": "inconclusive: 18.3 µM [activator, partial curve]"},
      {"smiles": "COc1cc(/C=C(\\C#N)c2nc3ccc(C)cc3[nH]2)c([N+](=O)[O-])cc1OC", "Potency": "inconclusive: 20.6 µM [inhibitor, partial curve]"},
      {"smiles": "Cc1ccc2nc(SC(C)C(=O)N3CCOCC3)[nH]c2c1", "note": "(stereo not drawn)", "Potency": "inconclusive: 13 µM [activator, partial curve]"},
      {"smiles": "COc1ccccc1Nc1nc(-c2sc(NC(=O)c3ccco3)nc2C)cs1", "Potency": "inconclusive: 16.4 µM [inhibitor, partial curve]"},
      {"smiles": "COc1ccc(-c2ncc3ccccn23)cc1", "Potency": "inconclusive: 20.6 µM [activator, single point]"},
      {"smiles": "COc1ccc(NC(=O)c2ccc3ccccc3c2)cc1", "Potency": "inconclusive: 1.12 µM [activator, full curve]"},
      {"smiles": "COc1cc(C)c(CNc2ccc(OC)c(OC)c2)cc1C", "Potency": "inconclusive: 23.1 µM [inhibitor, single point]"},
      {"smiles": "C=CC[C@@H]1C=C[C@H](O/N=C/c2ccc(C(=O)N3[C@H](c4ccc(C)cc4)[C@@H](C)CC[C@H]3C(=O)OC)cc2)[C@@H](CO)O1", "Potency": "active: 18.4 µM"},
      {"smiles": "COC(=O)Cc1c(C)nc2nc(-c3cccnc3)[nH]n2c1=O", "activity change, negative = inhibition": "inactive: -8.03%"},
      {"smiles": "COc1ccccc1N1CCN(C(=O)CCN2C(=O)c3cccc4cccc(c34)C2=O)CC1", "activity change, negative = inhibition": "inactive: -15.5%"}
    ]}
  ]
}
